## Small-molecule microarray binding calls

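Each compound is printed as two spots on a slide made to bind it covalently, so it has no test concentration; the read-out is fluorescence of the bound, labelled oligonucleotide. The data file lists only calls. An earlier report of the laboratory on the PreQ1, TPP and SAM-II riboswitches (doi:10.1038/s41467-019-09493-3) used 1 µM RNA for 2 h and required a mean Z-score above 3 (spot signal-to-noise against the whole library), a score well above that on a control array, and duplicate spots agreeing (coefficient of variation under 100); it then also set aside compounds that hit other targets, which this list keeps. The cut-offs behind this list may differ. The calls come from the array alone, and fixing a compound to the slide can hide its binding.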
Key: hit = hit, no hit = tested without a hit.
The compounds are a random part of those screened.
A target missing from an entry has no call listed here.

Targets, with sequences 5′ to 3′:
PreQ1: PreQ1 riboswitch RNA pseudoknot, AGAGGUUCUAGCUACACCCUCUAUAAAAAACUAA. From B. subtilis. About 170 hits among about 24,000 compounds.
SAM-II: SAM-II riboswitch RNA pseudoknot, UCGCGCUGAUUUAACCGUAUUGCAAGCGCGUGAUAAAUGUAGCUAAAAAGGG. About 200 hits among about 21,000 compounds.
TPP: TPP riboswitch RNA three-way junction, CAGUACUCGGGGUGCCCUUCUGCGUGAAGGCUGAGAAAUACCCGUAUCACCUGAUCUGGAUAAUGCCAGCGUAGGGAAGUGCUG. About 160 hits among about 24,000 compounds.

{"structure": "O=C(c1ccon1)N1CCN(Cc2cnn3cccnc23)CC(O)C1", "stereo": "stereo not drawn", "PreQ1": "no hit", "SAM-II": "no hit", "TPP": "no hit"}
{"structure": "Cc1ccc(OCC(O)CN)cc1.Cl", "stereo": "stereo not drawn", "PreQ1": "no hit", "SAM-II": "no hit", "TPP": "no hit"}
{"structure": "COc1cc(C)c(CNCCc2ccc(F)cc2)cc1C", "PreQ1": "no hit", "SAM-II": "no hit", "TPP": "no hit"}
{"structure": "CN(CCc1ccccn1)[C@@H]1CCN(c2nnnn2-c2ccccc2)C[C@H]1O", "PreQ1": "no hit", "SAM-II": "no hit", "TPP": "no hit"}
{"structure": "Cc1cccc(Nc2ccncc2S(=O)(=O)NC(=O)NC(C)C)c1", "PreQ1": "no hit", "SAM-II": "no hit", "TPP": "no hit"}
{"structure": "CCOC(=O)c1cnc(Nc2nc3ccccc3o2)nc1-c1ccccc1", "PreQ1": "no hit", "SAM-II": "no hit", "TPP": "no hit"}
{"structure": "C=CCN1C(=O)C2(C(C#N)=C(N)OC(c3ccccc3)=C2C(=O)OCC)c2ccccc21", "stereo": "stereo not drawn", "PreQ1": "no hit", "SAM-II": "no hit", "TPP": "no hit"}
{"structure": "CCN(CCCCO)Cc1cc2cc3c(cc2[nH]c1=O)OCO3", "PreQ1": "no hit", "SAM-II": "no hit", "TPP": "no hit"}
{"structure": "c1ccc(-c2cc(NCc3ccco3)n3cnnc3n2)cc1", "PreQ1": "no hit", "TPP": "no hit"}
{"structure": "CN(C)/[N+](O)=N/Oc1cc(O/N=[N+](\\[O-])N2CCN(C(=O)c3cc(Cc4n[nH]c(=O)c5ccccc45)ccc3F)CC2)c([N+](=O)[O-])cc1[N+](=O)[O-]", "PreQ1": "no hit", "SAM-II": "no hit", "TPP": "no hit"}
{"structure": "O=C(N[C@@H]1CCN(C(=O)CSc2ccncc2)C[C@H]1O)c1cnccn1", "PreQ1": "no hit", "SAM-II": "no hit", "TPP": "no hit"}
{"structure": "Cc1cc(C)c2c(CC(=O)N3[C@H]4CCNC[C@@H]3CC4)coc2c1", "PreQ1": "no hit", "SAM-II": "no hit", "TPP": "no hit"}
{"structure": "O=S(=O)(c1ccccc1)c1nc(-c2ccc(Cl)cc2)oc1NC1CC1", "PreQ1": "no hit", "TPP": "no hit"}
{"structure": "O=C(c1cn(CCN2CCNCC2)nn1)N1CCCC1c1cccnc1", "stereo": "stereo not drawn", "PreQ1": "no hit", "SAM-II": "no hit", "TPP": "no hit"}
{"structure": "CCOC(=O)c1sc2ncccc2c1N", "PreQ1": "no hit", "SAM-II": "no hit", "TPP": "no hit"}
{"structure": "O=C(/C=C/C(=O)N1CCc2ccccc2C1)N1CCc2ccccc2C1", "PreQ1": "no hit", "SAM-II": "no hit", "TPP": "no hit"}
{"structure": "CCOC(=O)c1c(N)n(-c2ccccc2OCC)c2nc3ccccc3nc12", "PreQ1": "no hit", "SAM-II": "no hit", "TPP": "no hit"}
{"structure": "N[C@H]1c2ccccc2C[C@@H]1NC(=O)c1cn(CCN2CCNCC2)nn1", "PreQ1": "no hit", "SAM-II": "no hit", "TPP": "no hit"}
{"structure": "COc1ccc(CCNCc2ccc(C(F)(F)F)cc2)cc1", "PreQ1": "no hit", "SAM-II": "no hit", "TPP": "no hit"}
{"structure": "O=C(O)c1cc(NCc2ccccc2)ccc1N1CCOCC1", "PreQ1": "no hit", "SAM-II": "no hit", "TPP": "no hit"}
{"structure": "FC(F)(F)c1cccc(Cc2noc(CNCc3ccncc3)n2)c1", "PreQ1": "no hit", "SAM-II": "no hit", "TPP": "no hit"}
{"structure": "COc1cc(N2CC(=O)C(c3nc(C)c(C)s3)=C2N)cc(OC)c1OC", "PreQ1": "no hit", "TPP": "no hit"}
{"structure": "O=S(=O)(N1CCCCC1)N1CCN(CC(O)COc2ccc3c(c2)CCC3)CC1", "stereo": "stereo not drawn", "PreQ1": "no hit", "SAM-II": "no hit", "TPP": "no hit"}
{"structure": "COc1ccc2cc3c(N)nn(C(=O)c4ccc(OC)c(OC)c4)c3nc2c1", "PreQ1": "no hit", "SAM-II": "no hit", "TPP": "no hit"}
{"structure": "COc1ccc(-c2cnc(NCc3cc(Br)ccc3F)n2C)cc1", "PreQ1": "no hit", "SAM-II": "no hit", "TPP": "no hit"}
{"structure": "C=CCNc1ccccc1C(=O)N1CCCC2(CCN(C)C2)C1", "stereo": "stereo not drawn", "PreQ1": "no hit", "SAM-II": "no hit", "TPP": "no hit"}
{"structure": "CCn1c(SCc2ccccc2C)nc2c(cnn2CCO)c1=O", "PreQ1": "no hit", "TPP": "no hit"}
{"structure": "NC1CC1c1ccccc1", "stereo": "stereo not drawn", "PreQ1": "no hit", "SAM-II": "no hit", "TPP": "no hit"}
{"structure": "O=C(CCc1cc2n(n1)CCNC2)NCc1scnc1-c1ccccc1", "PreQ1": "no hit", "SAM-II": "no hit", "TPP": "no hit"}
{"structure": "COc1ccc(Nc2c3c(nc4nncn24)CCC3)cc1OC", "PreQ1": "no hit", "TPP": "no hit"}
{"structure": "N=C(N)Nc1ccc(NC(=N)N)cc1", "PreQ1": "no hit", "SAM-II": "no hit", "TPP": "no hit"}
{"structure": "COCCNc1nc2c(c(=O)n(C)c(=O)n2C)n1Cc1ccc(F)cc1", "PreQ1": "no hit", "SAM-II": "no hit", "TPP": "no hit"}

The first 4 entries again:

structure,PreQ1,SAM-II,TPP
O=C(c1ccon1)N1CCN(Cc2cnn3cccnc23)CC(O)C1 (stereo not drawn),no hit,no hit,no hit
Cc1ccc(OCC(O)CN)cc1.Cl (stereo not drawn),no hit,no hit,no hit
COc1cc(C)c(CNCCc2ccc(F)cc2)cc1C,no hit,no hit,no hit
CN(CCc1ccccn1)[C@@H]1CCN(c2nnnn2-c2ccccc2)C[C@H]1O,no hit,no hit,no hit

Source: the ROBIN nucleic acid binder screens (doi:10.1002/anie.202211358).